Source: the supplement of paper PMC11006884
Only a part is listed here, and it is no random draw.

Sequences of proteins named here, by UniProt entry; tags and fusion partners are left off. A change or cut given only in a name is not applied to a line headed by its entry.
UniProt O43159: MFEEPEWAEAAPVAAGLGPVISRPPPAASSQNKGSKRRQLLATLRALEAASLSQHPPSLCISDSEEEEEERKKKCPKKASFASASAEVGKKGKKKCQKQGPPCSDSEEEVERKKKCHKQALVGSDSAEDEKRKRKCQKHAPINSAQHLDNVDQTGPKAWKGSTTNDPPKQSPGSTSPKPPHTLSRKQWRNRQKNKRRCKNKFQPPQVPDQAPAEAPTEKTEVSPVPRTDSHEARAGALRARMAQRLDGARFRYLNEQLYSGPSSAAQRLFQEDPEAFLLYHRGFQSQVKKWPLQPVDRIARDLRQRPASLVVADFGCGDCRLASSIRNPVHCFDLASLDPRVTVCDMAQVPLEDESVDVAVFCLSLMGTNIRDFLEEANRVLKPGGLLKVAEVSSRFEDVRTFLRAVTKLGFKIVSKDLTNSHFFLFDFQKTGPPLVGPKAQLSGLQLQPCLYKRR
UniProt O00429, whole entry, looked up: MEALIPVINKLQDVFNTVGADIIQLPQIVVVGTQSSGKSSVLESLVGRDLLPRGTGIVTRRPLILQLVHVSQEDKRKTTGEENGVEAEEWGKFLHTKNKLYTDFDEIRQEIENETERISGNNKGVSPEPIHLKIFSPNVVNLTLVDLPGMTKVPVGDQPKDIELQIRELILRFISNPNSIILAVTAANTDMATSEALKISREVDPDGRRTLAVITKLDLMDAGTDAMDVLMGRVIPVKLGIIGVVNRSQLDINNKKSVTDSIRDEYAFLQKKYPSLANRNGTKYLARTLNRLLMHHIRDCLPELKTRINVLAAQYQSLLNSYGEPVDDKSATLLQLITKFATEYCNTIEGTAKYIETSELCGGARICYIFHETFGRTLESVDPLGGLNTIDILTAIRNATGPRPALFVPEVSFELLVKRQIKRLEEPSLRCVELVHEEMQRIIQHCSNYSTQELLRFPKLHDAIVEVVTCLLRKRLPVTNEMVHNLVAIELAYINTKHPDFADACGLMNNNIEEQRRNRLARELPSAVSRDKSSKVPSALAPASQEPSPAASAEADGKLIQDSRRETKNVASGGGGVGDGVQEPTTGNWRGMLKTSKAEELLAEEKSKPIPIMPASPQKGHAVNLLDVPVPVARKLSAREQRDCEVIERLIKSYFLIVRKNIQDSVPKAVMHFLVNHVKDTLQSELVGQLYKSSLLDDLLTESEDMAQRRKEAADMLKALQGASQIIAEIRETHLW
UniProt O14979: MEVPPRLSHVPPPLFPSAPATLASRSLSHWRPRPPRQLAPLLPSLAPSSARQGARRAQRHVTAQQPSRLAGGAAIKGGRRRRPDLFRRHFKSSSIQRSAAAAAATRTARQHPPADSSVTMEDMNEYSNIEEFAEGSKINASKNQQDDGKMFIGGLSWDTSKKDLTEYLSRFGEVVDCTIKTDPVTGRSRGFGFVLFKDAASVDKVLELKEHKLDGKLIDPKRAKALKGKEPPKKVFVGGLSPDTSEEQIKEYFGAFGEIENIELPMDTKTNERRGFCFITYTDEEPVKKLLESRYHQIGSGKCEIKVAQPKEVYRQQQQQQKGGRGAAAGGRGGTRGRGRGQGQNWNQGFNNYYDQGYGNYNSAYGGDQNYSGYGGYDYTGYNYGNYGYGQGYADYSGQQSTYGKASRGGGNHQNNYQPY
UniProt O00418: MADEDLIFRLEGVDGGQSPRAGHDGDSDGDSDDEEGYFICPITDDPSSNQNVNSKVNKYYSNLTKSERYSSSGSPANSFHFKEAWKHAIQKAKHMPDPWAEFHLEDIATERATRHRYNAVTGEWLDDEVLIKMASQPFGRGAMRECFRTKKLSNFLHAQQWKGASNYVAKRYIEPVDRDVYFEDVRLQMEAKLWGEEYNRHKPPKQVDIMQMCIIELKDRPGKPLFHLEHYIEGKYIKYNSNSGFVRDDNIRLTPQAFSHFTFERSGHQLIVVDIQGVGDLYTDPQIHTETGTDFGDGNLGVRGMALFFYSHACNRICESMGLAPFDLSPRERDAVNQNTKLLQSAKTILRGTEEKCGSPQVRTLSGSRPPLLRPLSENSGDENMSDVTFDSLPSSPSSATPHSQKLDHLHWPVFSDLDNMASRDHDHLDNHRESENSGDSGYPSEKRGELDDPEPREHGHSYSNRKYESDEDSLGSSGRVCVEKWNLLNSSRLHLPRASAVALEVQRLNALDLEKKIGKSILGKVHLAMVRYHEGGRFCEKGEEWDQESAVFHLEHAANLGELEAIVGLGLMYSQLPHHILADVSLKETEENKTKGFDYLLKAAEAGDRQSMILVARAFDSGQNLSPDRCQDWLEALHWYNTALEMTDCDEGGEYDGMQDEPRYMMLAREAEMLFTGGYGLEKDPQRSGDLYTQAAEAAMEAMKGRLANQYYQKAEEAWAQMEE
UniProt O15111: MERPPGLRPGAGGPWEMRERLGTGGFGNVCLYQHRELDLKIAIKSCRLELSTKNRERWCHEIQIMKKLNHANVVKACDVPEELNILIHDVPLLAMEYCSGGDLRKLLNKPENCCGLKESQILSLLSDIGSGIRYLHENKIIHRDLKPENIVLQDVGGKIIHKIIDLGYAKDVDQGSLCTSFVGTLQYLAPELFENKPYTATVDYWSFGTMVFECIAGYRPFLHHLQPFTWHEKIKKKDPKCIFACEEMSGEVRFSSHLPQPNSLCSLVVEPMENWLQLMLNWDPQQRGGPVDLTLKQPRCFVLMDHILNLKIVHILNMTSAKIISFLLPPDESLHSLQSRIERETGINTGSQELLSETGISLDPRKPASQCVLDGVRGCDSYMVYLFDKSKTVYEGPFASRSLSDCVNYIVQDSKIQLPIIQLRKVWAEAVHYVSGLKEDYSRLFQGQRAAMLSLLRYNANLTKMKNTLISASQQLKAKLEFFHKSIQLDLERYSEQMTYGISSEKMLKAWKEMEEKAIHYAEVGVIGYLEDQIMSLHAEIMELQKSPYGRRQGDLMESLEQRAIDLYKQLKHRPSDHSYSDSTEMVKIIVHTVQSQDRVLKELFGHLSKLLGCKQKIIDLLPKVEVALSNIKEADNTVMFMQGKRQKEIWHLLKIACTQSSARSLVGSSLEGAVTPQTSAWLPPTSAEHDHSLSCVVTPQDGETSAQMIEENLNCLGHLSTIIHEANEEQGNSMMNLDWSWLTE
UniProt O14893: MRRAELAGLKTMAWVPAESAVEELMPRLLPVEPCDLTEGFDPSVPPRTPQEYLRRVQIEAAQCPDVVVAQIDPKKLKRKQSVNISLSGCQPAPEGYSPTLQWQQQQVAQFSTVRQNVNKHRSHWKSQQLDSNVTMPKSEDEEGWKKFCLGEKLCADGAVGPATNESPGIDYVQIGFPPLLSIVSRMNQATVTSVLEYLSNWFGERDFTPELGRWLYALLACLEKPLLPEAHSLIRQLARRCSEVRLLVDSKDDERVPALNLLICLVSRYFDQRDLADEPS
UniProt O00244: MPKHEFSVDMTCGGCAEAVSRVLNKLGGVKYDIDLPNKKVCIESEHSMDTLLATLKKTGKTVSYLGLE
UniProt O43175: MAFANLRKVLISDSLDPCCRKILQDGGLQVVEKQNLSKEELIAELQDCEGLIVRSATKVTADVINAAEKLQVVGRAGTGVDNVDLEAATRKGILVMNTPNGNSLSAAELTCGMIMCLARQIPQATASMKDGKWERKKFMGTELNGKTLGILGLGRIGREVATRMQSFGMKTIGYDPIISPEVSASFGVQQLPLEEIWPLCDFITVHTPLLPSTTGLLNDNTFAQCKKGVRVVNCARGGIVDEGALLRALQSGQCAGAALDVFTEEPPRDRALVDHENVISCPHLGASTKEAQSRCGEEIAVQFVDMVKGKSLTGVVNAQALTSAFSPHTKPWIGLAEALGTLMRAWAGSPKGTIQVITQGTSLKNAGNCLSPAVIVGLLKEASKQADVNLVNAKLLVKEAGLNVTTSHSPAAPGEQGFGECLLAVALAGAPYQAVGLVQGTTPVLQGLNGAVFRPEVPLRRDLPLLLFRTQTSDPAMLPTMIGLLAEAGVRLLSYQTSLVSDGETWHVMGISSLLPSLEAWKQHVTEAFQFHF
UniProt O14964, whole entry, looked up: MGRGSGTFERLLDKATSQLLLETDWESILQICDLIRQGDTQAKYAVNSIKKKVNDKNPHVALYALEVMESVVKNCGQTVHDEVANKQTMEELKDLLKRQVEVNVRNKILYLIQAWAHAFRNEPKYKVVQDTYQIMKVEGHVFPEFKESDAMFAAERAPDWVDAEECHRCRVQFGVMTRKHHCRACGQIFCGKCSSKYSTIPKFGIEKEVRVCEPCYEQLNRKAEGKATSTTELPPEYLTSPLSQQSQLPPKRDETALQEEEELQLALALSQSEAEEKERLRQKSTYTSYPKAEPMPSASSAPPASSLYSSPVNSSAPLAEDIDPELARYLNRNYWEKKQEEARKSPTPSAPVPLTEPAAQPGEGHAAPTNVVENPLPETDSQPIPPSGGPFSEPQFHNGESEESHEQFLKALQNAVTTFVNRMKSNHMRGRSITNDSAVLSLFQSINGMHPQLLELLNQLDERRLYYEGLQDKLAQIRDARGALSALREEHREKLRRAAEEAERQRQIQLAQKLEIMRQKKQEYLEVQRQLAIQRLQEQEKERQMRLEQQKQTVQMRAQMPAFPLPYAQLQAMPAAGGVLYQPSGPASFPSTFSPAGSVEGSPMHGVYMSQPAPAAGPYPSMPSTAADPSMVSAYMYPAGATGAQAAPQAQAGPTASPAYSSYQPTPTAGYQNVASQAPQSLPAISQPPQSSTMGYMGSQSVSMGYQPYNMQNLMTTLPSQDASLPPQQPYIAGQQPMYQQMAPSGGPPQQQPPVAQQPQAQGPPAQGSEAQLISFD
UniProt O00148, whole entry, looked up: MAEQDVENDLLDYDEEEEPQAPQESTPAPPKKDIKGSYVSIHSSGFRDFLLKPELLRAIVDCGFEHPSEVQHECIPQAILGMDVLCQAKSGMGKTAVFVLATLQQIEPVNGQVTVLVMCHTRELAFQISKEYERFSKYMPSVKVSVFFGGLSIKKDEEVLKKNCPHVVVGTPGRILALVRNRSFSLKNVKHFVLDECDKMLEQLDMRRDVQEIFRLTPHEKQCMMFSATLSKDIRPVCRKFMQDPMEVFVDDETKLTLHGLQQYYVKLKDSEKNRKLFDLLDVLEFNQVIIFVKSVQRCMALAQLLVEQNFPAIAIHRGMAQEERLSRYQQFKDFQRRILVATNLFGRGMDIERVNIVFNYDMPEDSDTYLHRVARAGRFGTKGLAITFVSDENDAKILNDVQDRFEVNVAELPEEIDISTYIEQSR
UniProt O00273: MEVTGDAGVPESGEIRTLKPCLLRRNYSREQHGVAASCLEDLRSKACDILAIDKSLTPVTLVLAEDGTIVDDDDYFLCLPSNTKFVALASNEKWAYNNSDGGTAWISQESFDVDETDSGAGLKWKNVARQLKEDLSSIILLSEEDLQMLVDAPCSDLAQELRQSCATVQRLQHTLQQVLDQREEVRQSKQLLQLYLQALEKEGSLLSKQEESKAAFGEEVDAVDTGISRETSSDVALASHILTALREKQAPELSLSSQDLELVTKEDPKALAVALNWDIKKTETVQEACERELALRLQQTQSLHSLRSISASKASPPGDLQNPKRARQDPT
UniProt O00231, whole entry: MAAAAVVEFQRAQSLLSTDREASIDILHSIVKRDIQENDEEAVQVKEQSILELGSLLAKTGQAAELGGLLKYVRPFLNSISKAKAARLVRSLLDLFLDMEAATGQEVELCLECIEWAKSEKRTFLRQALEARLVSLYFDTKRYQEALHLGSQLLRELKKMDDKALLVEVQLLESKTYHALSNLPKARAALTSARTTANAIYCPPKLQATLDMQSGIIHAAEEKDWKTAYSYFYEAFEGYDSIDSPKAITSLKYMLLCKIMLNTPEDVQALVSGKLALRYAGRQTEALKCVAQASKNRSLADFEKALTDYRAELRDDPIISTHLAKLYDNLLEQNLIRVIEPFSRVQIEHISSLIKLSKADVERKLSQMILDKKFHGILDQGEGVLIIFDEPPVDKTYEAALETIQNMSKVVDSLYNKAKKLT
UniProt O00571: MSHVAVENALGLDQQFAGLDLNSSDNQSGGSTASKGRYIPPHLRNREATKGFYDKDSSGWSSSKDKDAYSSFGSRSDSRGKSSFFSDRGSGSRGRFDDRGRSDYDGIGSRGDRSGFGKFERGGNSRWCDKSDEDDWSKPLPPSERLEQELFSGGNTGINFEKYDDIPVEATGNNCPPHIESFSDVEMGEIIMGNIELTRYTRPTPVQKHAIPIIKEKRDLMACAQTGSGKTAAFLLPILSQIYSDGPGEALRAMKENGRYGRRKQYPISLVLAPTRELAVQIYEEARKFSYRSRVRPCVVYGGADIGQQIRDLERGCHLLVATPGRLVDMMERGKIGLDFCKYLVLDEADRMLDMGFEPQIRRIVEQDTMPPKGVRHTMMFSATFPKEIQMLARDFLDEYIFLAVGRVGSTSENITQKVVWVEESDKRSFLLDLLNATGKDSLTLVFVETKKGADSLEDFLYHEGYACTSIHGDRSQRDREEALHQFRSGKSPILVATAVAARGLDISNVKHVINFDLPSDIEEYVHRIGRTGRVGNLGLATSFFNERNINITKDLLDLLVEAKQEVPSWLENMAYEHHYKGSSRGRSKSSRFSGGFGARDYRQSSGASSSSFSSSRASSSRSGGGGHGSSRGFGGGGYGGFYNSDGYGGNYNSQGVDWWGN

Compound: COC(=O)C#Cc1ccccc1 [methyl 3-phenylpropiolate]
Assay: log2 ratio of iodoacetamide-alkyne labeling of the cysteine site, DMSO over compound (competition); higher = stronger covalent engagement of the cysteine by the compound, active = 1 or more
Details: 500 µM; treatment time 1 h; system: HEK293T cell lysate
How it was run: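 After 1 h at ambient temperature with vehicle or electrophile (500 µM), HEK293T lysate (2 mg/mL) was labelled for 1 h with iodoacetamide alkyne and clicked to sCIP-TMT reagents. Pooled samples were trypsin-digested overnight at 37 °C, streptavidin-enriched, acid-eluted and analysed by Orbitrap Eclipse LC-MS/MS with FAIMS, then quantified in FragPipe over three replicates with duplicate channels. A cysteine's log2 competition ratio is its mean control-channel over mean compound-channel reporter intensity. Cysteines quantified in only one replicate were not included.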

| Target | log2 ratio of iodoacetamide-alkyne labeling |
| --- | --- |
| UniProt O43159_C451 | inactive: 0.417 |
| EIF3D C258 (UniProt O15371) | inactive: 0.08 |
| DNM1L C361 (UniProt O00429) | inactive: 0.736 |
| RNMT C50 (UniProt O43148) | inactive: 0.483 |
| UniProt O14979_C303 | inactive: 0.0868 |
| TNRC18 C2204 (UniProt O15417) | inactive: 0.151 |
| NVL C359 (UniProt O15381) | inactive: -0.043 |
| PRPF4 C237 (UniProt O43172) | active: 1.42 |
| EEF2K C482 (UniProt O00418) | inactive: 0.858 |
| KIF2A C406 (UniProt O00139) | inactive: 0.164 |
| UniProt O15111_C406 | inactive: 0.267 |
| TRIM24 C56 (UniProt O15164) | inactive: 0.0454 |
| PODXL C344 (UniProt O00592) | inactive: 0.214 |
| GNPAT C73 (UniProt O15228) | inactive: 0.613 |
| ZZEF1 C69 (UniProt O43149) | inactive: 0.129 |
| DHX15 C774 (UniProt O43143) | inactive: 0.418 |
| GEMIN2 C89 (UniProt O14893) | inactive: 0.0396 |
| ATOX1 C41 (UniProt O00244) | inactive: 0.0939 |
| UniProt O43159_C332 | inactive: 0.0124 |

| Target | log2 ratio of iodoacetamide-alkyne labeling |
| --- | --- |
| RNMT C95 (UniProt O43148) | inactive: 0.291 |
| PHGDH C369 (UniProt O43175) | active: 1.78 |
| PHGDH C48 (UniProt O43175) | inactive: -0.108 |
| HGS C166 (UniProt O14964) | inactive: 0.319 |
| APAF1 C258 (UniProt O14727) | inactive: 0.0065 |
| UniProt O00148_C62 | inactive: 0.591 |
| MGST3 C131 (UniProt O14880) | inactive: 0.00345 |
| PES1 C272 (UniProt O00541) | inactive: 0.915 |
| PLOD2 C494 (UniProt O00469) | inactive: 0.723 |
| DFFA C165 (UniProt O00273) | inactive: 0.146 |
| IPO5 C229 (UniProt O00410) | inactive: 0.0502 |
| UniProt O14965_C290 | inactive: 0.197 |
| PSMD11 C289 (UniProt O00231) | inactive: 0.253 |
| PRPF4 C441 (UniProt O43172) | inactive: 0.531 |
| FAM171A2 C742 (UniProt A8MVW0) | inactive: 0.116 |
| UniProt O14965_C393 | inactive: 0.594 |
| DDX3X C341 (UniProt O00571) | inactive: 0.091 |
| IPO5 C420 (UniProt O00410) | inactive: 0.232 |
